# Reference: the supplement of paper PMC8326762, “A Small Molecule Inhibitor of Pex3–Pex19 Interaction Disrupts Glycosome Biogenesis and Causes Lethality in Trypanosoma brucei” (Frontiers in Cell and Developmental Biology, 2021)
# Structures can show the parent of a compound that is named as a salt. This is one part of the list. This is a noisy data set.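 Yeast growth was measured as optical density at 600 nm. Two-hybrid strains grew without histidine, so growth depended on Pex3–Pex19 binding. A compound was trypanosome-selective if it reduced growth of the trypanosome-pair strain by over 65% and of the human-pair strain by under 65%.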
# Tests used:
# [1] = system: Saccharomyces cerevisiae HF7c pdr5Δ; assay: general growth inhibition of yeast HF7c pdr5Δ in -Leu -Trp medium, relative to DMSO; higher = stronger general growth inhibition; conditions: 100 µM; 24 h
# [2] = system: human PEX3-PEX19 interaction (yeast two-hybrid); assay: growth inhibition of yeast two-hybrid strain reporting HsPex3-HsPex19 interaction, relative to DMSO; higher = stronger inhibition of human Pex3-Pex19 interaction / growth; conditions: 100 µM; 24 h; 3-aminotriazole 10 mM
# [3] = system: T. brucei Pex3-Pex19 interaction (yeast two-hybrid); assay: growth inhibition of yeast two-hybrid strain reporting TbPex3-TbPex19 interaction, relative to DMSO; higher = stronger inhibition of T. brucei Pex3-Pex19 interaction / growth; conditions: 100 µM; 24 h
Compound,general growth inhibition [1] [%],growth inhibition [2] [%],growth inhibition [3] [%]
COc1ccc(NC(=O)c2ccc(-c3ccc(-c4noc(C)n4)cc3C)cc2)cc1N1CCN(C)CC1,38.2,41.1,54.1
NCC(O)(CS(=O)(=O)O)c1ccc(Cl)cc1 (stereo not drawn) [2-Hydroxysaclofen],27.5,27.2,50.5
O=c1c2ccccc2[nH]c(=S)n1CCN1CCC(=C(c2ccc(F)cc2)c2ccc(F)cc2)CC1 [Diacylglycerol Kinase Inhibitor II],74.8,70.1,71.1
O=c1[nH]c(=O)n([C@H]2C[C@H](O)[C@@H](CO)O2)cc1Br [5-Bromo-2'-deoxyuridine],35,41.5,55
O=C1CC2(CCCC2)CC(=O)N1CCCCN1CCN(c2ncccn2)CC1 [Buspirone hydrochloride],34.9,36.5,49.4
CCOC(=O)c1ccc(C#Cc2ccc3c(c2)C(C)(C)CCS3)nc1 [Tazarotene],25.3,29.1,53.3
O=C(O)/C=C/c1ccc(O)c(O)c1 [Caffeic Acid],43.4,43.3,64.1
NC(CCCP(=O)(O)O)C(=O)O (racemic) [(±)-2-Amino-5-phosphonopentanoic acid],45.6,39.9,57.1
NC1C=CC=C(C(=O)O)C1 (stereo not drawn) [Gabaculine hydrochloride],17.7,13.2,37.5
O=C1c2ccccc2-c2n[nH]c3cccc1c23,31.7,43.2,40.1
CC(=O)S[C@@H]1CC2=CC(=O)CC[C@]2(C)[C@H]2CC[C@@]3(C)[C@@H](CC[C@@]34CCC(=O)O4)[C@H]12 [Spironolactone],50.2,41.5,66.5
